Test results taken from PMC5376648, “Cell-free reconstitution reveals centriole cartwheel assembly mechanisms” (Nature Communications, 2017).
These are yes or no findings as the source states them, for the method shown. Some results given as binding are weak or reduced against the parent protein; the word gives no strength. Sequences can lack the tags named with a protein.

Biological target: T1, full-length CrSAS-6 (HisCrSAS-6_FL) (Chlamydomonas reinhardtii) (UniProt A9CQL4)
T1 sequence: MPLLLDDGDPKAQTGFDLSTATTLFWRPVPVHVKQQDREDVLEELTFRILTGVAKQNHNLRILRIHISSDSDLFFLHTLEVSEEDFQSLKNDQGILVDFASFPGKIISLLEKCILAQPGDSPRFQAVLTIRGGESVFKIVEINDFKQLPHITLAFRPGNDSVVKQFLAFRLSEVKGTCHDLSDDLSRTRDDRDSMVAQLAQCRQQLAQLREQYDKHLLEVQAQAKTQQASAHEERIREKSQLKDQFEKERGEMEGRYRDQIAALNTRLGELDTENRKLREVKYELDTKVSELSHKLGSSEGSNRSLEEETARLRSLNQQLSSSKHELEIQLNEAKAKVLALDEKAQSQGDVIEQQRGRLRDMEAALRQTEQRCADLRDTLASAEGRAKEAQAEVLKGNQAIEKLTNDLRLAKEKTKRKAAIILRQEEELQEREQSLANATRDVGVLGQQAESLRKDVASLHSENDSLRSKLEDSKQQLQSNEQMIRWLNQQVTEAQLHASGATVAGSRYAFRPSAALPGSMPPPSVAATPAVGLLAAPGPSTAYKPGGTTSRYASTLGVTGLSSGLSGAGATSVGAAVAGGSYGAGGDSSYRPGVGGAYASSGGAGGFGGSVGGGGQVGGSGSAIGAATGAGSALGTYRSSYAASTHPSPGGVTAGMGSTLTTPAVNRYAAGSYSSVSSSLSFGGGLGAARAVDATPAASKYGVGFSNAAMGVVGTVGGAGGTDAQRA
Assay: cryo-EM and cryo-electron tomography of assemblies formed in a cell-free assay; CrSAS-6_FL (10 uM) and Bld10p_C (78 uM) mixed, incubated 4 h at 4 °C in 20 mM Tris pH 7.5, 150 mM NaCl, then dialysed against 10 mM K-PIPES pH 7.2 (final ~0.5 uM and ~4 uM); both purified

B1: Bld10p_C (residues 1061-1641 of Bld10p) (domain or fragment, UniProt A8ID55 1061-1640)
chain: SAEQLLRAKEAEAEDLRRVYEALAAEHRRLQGGVGALEREGAMREAALQAKAAEVSSLAESQRAAQATINQYVMDLQAFERQVDSLSRQLSQAEADGEELVRQREALLEEIRAAQQVRLGLERHREELQRQVASLDSQVAIGRARLEDSNSEAASLNQRLAMERSRVAELEGLLAGMRAREFRSDFASDRAGGQLAVMVDRNRALEEQVASLQHQVGALQASREAQDRELSRLRGEALALAASTAASLEGRTAAAGGAAAGAAKDQAAALDRLTSERDAAQDEAARLRGALAAAEAAAASASTAAAVSIPAAGSGSEAAAVLRVRCSELERRNTELMQELRTLQDTCRQQESLLSAAQNELSALQAEHRRLVELVARLDQDKAAAAAEAAAARQQVATATRRVATAEQEAAAGAARLQSQLRDEQGRRRQAERDFLELLSSIEGAGGEAAAAAVAAAHGEGAAELASRRLRELQTQVDALEAEKAGLEEATQRTRATLGAMSGQMAAIQAEYDATNTALAGLAGAMAAGAQGQGQVQGPAGTAPAAAAGAPGPQPGQAQAGGFGGAHGGGSISLSGGPRR
  binding: binds
